No constants are given. Whether binding was seen depends on the method and setting. In cells and extracts the contact can be indirect.
Molecular target: HIF-1α-Flag (Flag-tagged hypoxia-inducible factor 1 alpha subunit) (UniProt Q16665)
Assay: co-IP; 293 cells co-transfected with 4 μg HIPK2-GFP and 8 μg HIF-1α-Flag for 24 h; total cell extracts (20 mmol/L Hepes, 100 mmol/L NaCl, 5 mM EDTA pH 8.0, 10% glycerol) immunoprecipitated with anti-Flag antibody on protein G-Agarose, 2 h at 4 °C; immunoblot with anti-GFP

Amino acid sequences for entries named in this document (tags omitted).
UniProt Q16665: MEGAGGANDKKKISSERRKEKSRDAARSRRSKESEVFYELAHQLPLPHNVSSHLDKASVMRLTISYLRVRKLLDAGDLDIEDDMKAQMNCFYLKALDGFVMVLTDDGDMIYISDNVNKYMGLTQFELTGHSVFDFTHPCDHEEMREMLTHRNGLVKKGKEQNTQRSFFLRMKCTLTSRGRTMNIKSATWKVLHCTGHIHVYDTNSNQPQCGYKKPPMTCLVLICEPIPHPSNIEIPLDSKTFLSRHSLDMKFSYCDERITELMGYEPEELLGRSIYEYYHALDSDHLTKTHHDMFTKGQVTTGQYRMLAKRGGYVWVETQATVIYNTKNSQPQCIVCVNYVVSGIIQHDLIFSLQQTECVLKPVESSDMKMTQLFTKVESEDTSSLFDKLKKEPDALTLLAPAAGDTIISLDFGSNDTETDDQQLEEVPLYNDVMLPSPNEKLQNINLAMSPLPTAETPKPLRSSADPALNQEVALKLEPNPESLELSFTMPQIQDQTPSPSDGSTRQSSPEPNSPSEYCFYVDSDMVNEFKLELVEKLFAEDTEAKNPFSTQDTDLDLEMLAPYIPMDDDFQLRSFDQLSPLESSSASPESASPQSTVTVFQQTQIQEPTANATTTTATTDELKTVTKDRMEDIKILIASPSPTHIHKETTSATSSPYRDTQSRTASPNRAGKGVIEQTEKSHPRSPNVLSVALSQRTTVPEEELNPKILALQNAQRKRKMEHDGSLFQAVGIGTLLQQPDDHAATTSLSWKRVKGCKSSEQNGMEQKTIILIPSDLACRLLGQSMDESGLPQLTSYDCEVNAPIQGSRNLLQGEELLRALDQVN
UniProt Q9QZR5: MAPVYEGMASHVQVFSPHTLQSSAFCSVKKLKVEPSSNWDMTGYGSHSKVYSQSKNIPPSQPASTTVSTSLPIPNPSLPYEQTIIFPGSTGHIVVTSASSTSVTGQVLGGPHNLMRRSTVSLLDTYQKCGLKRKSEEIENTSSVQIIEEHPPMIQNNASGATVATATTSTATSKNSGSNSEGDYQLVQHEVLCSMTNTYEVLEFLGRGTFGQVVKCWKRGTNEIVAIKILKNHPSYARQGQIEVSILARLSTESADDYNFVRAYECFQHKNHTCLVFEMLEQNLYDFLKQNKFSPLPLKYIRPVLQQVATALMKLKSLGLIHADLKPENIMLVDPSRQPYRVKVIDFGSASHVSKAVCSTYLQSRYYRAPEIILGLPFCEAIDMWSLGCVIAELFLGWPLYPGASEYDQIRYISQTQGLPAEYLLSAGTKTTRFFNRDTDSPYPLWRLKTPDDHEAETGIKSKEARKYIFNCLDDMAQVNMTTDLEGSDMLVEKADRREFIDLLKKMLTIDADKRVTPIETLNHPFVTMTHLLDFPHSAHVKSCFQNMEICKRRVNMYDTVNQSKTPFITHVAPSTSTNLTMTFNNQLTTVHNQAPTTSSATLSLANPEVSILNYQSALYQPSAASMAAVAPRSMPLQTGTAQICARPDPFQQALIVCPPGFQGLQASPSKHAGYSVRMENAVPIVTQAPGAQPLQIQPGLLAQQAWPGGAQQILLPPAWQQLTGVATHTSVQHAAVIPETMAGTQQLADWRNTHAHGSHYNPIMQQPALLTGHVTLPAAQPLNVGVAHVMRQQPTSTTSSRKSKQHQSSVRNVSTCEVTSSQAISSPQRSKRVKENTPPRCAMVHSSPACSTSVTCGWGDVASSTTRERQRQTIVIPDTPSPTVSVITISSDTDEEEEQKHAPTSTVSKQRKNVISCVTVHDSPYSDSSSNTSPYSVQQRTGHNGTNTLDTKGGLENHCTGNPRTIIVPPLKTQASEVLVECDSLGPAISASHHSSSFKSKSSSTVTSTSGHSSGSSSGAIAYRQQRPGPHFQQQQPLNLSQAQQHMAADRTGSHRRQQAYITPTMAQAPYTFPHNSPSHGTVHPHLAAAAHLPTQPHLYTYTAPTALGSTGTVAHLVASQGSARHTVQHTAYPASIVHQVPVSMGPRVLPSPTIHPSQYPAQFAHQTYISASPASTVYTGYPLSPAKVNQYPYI

For “HIPK2-GFP (homeodomain-interacting protein kinase-2, GFP-tagged) (from UniProt Q9QZR5 1-1196)”, the binding was “no binding”.

From paper PMC3047137
